Laboratory results from US20230346747A1, “DIALKYL T[…] THEIR […] USES” (CAAMTECH, INC., priority 2020, published 2023).
At least one structure is not confirmed: it was looked up by name or label, or the drawing left a doubt.

Assay: hydrolysis of the compound into its active (rate of hydrolysis in water)

## CN(C)CCc1c[nH]c2cccc(OP(=O)(O)O)c12 [Psilocybin]
Hydrolysis into the active compound, Table 1
  Hydrolysis rate: 0.03
hydrolysis, Table 2
  kobs: <1 (s^-1) × 10^-6
